These are yes or no findings as the source states them, for the method shown. In cells and extracts the contact can be indirect. These calls come from enrichment with a bait or labelling near it, and not all partners need be listed. Sequences can lack the tags named with a protein.
T1: Human Lon protease with Myc tag (human), P36776
T1 chain: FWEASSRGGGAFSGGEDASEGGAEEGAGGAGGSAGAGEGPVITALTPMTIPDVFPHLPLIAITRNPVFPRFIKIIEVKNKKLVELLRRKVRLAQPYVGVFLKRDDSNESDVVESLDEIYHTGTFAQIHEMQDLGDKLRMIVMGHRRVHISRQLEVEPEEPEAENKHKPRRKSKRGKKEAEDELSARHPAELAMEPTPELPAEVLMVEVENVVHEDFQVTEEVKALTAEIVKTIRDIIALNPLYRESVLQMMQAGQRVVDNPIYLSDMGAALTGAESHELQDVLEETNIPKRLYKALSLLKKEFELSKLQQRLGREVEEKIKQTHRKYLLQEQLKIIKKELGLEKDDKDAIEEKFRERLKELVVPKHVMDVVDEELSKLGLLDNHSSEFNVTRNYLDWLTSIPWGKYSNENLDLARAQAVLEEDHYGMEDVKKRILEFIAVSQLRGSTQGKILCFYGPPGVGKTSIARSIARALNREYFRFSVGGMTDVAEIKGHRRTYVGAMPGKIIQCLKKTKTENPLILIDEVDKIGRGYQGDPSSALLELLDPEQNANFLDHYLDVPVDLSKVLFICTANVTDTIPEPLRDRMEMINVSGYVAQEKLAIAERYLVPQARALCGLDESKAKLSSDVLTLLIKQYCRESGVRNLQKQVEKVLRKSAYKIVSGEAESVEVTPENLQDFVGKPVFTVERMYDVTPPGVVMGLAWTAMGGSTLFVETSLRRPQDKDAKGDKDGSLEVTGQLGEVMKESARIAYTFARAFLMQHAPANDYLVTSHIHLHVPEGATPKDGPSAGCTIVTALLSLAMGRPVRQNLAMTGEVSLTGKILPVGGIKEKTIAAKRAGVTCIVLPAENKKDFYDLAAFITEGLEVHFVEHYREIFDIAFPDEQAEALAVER

T2: Human Lon protease with Myc tag (human) (UniProt P36776)
T2 sequence: T1 chain

B1: 60 kDa heat shock protein, mitochondrial (HSP60), P10809 27-573 (protein)
chain: AKDVKFGADARALMLQGVDLLADAVAVTMGPKGRTVIIEQSWGSPKVTKDGVTVAKSIDLKDKYKNIGAKLVQDVANNTNEEAGDGTTTATVLARSIAKEGFEKISKGANPVEIRRGVMLAVDAVIAELKKQSKPVTTPEEIAQVATISANGDKEIGNIISDAMKKVGRKGVITVKDGKTLNDELEIIEGMKFDRGYISPYFINTSKGQKCEFQDAYVLLSEKKISSIQSIVPALEIANAHRKPLVIIAEDVDGEALSTLVLNRLKVGLQVVAVKAPGFGDNRKNQLKDMAIATGGAVFGEEGLTLNLEDVQPHDLGKVGEVIVTKDDAMLLKGKGDKAQIEKRIQEIIEQLDVTTSEYEKEKLNERLAKLSDGVAVLKVGGTSDVEVNEKKDRVTDALNATRAAVEEGIVLGGGCALLRCIPALDSLTPANEDQKIGIEIIKRTLKIPAMTIAKNAGVEGSLIVEKIMQSSSEVGYDAMAGDFVNMVEKGIIDPTKVVRTALLDAAGVASLLTTAEVVVTEIPKEEKDPGMGAMGGMGGGMGGGMF
B2: Coenzyme Q biosynthesis monooxygenase (CoQ6) (enzyme, UniProt Q9Y2Z9 29-468)
chain: GASTDTVYDVVVSGGGLVGAAMACALGYDIHFHDKKILLLEAGPKKVLEKLSETYSNRVSSISPGSATLLSSFGAWDHICNMRYRAFRRMQVWDACSEALIMFDKDNLDDMGYIVENDVIMHALTKQLEAVSDRVTVLYRSKAIRYTWPCPFPMADSSPWVHITLGDGSTFQTKLLIGADGHNSGVRQAVGIQNVSWNYDQSAVVATLHLSEATENNVAWQRFLPSGPIALLPLSDTLSSLVWSTSHEHAAELVSMDEEKFVDAVNSAFWSDADHTDFIDTAGAMLQYAVSLLKPTKVSARQLPPSVARVDAKSRVLFPLGLGHAAEYVRPRVALIGDAAHRVHPLAGQGVNMGFGDISSLAHHLSTAAFNGKDLGSVSHLTGYETERQRHNTALLAATDLLKRLYSTSASPLVLLRTWGLQATNAVSPLKEQIMAFASK
B3: Peroxiredoxin-2 (PRDX2) (enzyme, UniProt P32119 1-198)
chain: MASGNARIGKPAPDFKATAVVDGAFKEVKLSDYKGKYVVLFFYPLDFTFVCPTEIIAFSNRAEDFRKLGCEVLGVSVDSQFTHLAWINTPRKEGGLGPLNIPLLADVTRRLSEDYGVLKTDEGIAYRGLFIIDGKGVLRQITVNDLPVGRSVDEALRLVQAFQYTDEHGEVCPAGWKPGSDTIKPNVDDSKEYFSKHN
B4: Dihydrolipoamide dehydrogenase (DLDH) (enzyme, UniProt P09622 36-509)
chain: ADQPIDADVTVIGSGPGGYVAAIKAAQLGFKTVCIEKNETLGGTCLNVGCIPSKALLNNSHYYHMAHGKDFASRGIEMSEVRLNLDKMMEQKSTAVKALTGGIAHLFKQNKVVHVNGYGKITGKNQVTATKADGGTQVIDTKNILIATGSEVTPFPGITIDEDTIVSSTGALSLKKVPEKMVVIGAGVIGVELGSVWQRLGADVTAVEFLGHVGGVGIDMEISKNFQRILQKQGFKFKLNTKVTGATKKSDGKIDVSIEAASGGKAEVITCDVLLVCIGRRPFTKNLGLEELGIELDPRGRIPVNTRFQTKIPNIYAIGDVVAGPMLAHKAEDEGIICVEGMAGGAVHIDYNCVPSVIYTHPEVAWVGKSEEQLKEEGIEYKVGKFPFAANSRAKTNADTDGMVKILGQKSTDRVLGAHILGPGAGEMVNEAALALEYGASCEDIARVCHAHPTLSEAFREANLAASFGKSINF
B5: protocadherin-18 (protein, UniProt Q9HCL0 28-1135)
chain: KNLKYRIYEEQRVGSVIARLSEDVADVLLKLPNPSTVRFRAMQRGNSPLLVVNEDNGEISIGATIDREQLCQKNLNCSIEFDVITLPTEHLQLFHIEVEVLDINDNSPQFSRSLIPIEISESAAVGTRIPLDSAFDPDVGENSLHTYSLSANDFFNIEVRTRTDGAKYAELIVVRELDRELKSSYELQLTASDMGVPQRSGSSILKISISDSNDNSPAFEQQSYIIQLLENSPVGTLLLDLNATDPDEGANGKIVYSFSSHVSPKIMETFKIDSERGHLTLFKQVDYEITKSYEIDVQAQDLGPNSIPAHCKIIIKVVDVNDNKPEININLMSPGKEEISYIFEGDPIDTFVALVRVQDKDSGLNGEIVCKLHGHGHFKLQKTYENNYLILTNATLDREKRSEYSLTVIAEDRGTPSLSTVKHFTVQINDINDNPPHFQRSRYEFVISENNSPGAYITTVTATDPDLGENGQVTYTILESFILGSSITTYVTIDPSNGAIYALRIFDHEEVSQITFVVEARDGGSPKQLVSNTTVVLTIIDENDNVPVVIGPALRNNTAEITIPKGAESGFHVTRIRAIDRDSGVNAELSCAIVAGNEENIFIIDPRSCDIHTNVSMDSVPYTEWELSVIIQDKGNPQLHTKVLLKCMIFEYAESVTSTAMTSVSQASLDVSMIIIISLGAICAVLLVIMVLFATRCNREKKDTRSYNCRVAESTYQHHPKRPSRQIHKGDITLVPTINGTLPIRSHHRSSPSSSPTLERGQMGSRQSHNSHQSLNSLVTISSNHVPENFSLELTHATPAVEQVSQLLSMLHQGQYQPRPSFRGNKYSRSYRYALQDMDKFSLKDSGRGDSEAGDSDYDLGRDSPIDRLLGEGFSDLFLTDGRIPAAMRLCTEECRVLGHSDQCWMPPLPSPSSDYRSNMFIPGEEFPTQPQQQHPHQSLEDDAQPADSGEKKKSFSTFGKDSPNDEDTGDTSTSSLLSEMSSVFQRLLPPSLDTYSECSEVDRSNSLERRKGPLPAKTVGYPQGVAAWAASTHFQNPTTNCGPPLGTHSSVQPSSKWLPAMEEIPENYEEDDFDNVLNHLNDGKHELMDASELVAEINKLLQDVRQS
B6: Peroxiredoxin-1 (PRDX1) (enzyme, UniProt Q06830 1-199)
chain: MSSGNAKIGHPAPNFKATAVMPDGQFKDISLSDYKGKYVVFFFYPLDFTFVCPTEIIAFSDRAEEFKKLNCQVIGASVDSHFCHLAWVNTPKKQGGLGPMNIPLVSDPKRTIAQDYGVLKADEGISFRGLFIIDDKGILRQITVNDLPVGRSVDETLRLVQAFQFTDKHGEVCPAGWKPGSDTIKPDVQKSKEYFSKQK
B7: Methylmalonic aciduria and homocystinuria type D protein, mitochondrial (MMAD) (protein, UniProt Q9H3L0 39-296)
chain: SDESHVAAAPPDICSRTVWPDETMGPFGPQDQRFQLPGNIGFDCHLNGTASQKKSLVHKTLPDVLAEPLSSERHEFVMAQYVNEFQGNDAPVEQEINSAETYFESARVECAIQTCPELLRKDFESLFPEVANGKLMILTVTQKTKNDMTVWSEEVEIEREVLLEKFINGAKEICYALRAEGYWADFIDPSSGLAFFGPYTNNTLFETDERYRHLGFSVDDLGCCKVIRHSLWGTHVVVGSIFTNATPDSHIMKKLSGN
B8: Thioredoxin2 (THIO2) (protein, UniProt Q99757 60-166)
chain: TTFNIQDGPDFQDRVVNSETPVVVDFHAQWCGPCKILGPRLEKMVAKQHGKVVMAKVDIDDHTDLAIEYEVSAVPTVLAMKNGDVVDKFVGIKDEDQLEAFLKKLIG

Target: T1, Human Lon protease with Myc tag …
Assay: affinity purification with mass spectrometry; Lon-myc immunocomplex from 293/Lon lysate on anti-c-Myc agarose, washed with NETN, eluted by 6 M urea, in-solution digestion, shotgun nanoLC-MS/MS; three experiments, 293/myc cells as negative control
Conditions: remark: other sources report otherwise

| binding | Binder |
| --- | --- |
| binds | B1 |

target: T2, Human Lon protease with Myc tag (human); assay: as above; conditions: not given

| binding | Binder |
| --- | --- |
| binds | B2 |
| binds | B3 |
| binds | B4 |
| binds | B5 |
| binds | B6 |
| binds | B7 |
| binds | B8 |

target: T2, Human Lon protease with Myc tag (human); assay: affinity purification with mass spectrometry; anti-myc Co-IP from 293/Lon cells; eluate resolved by 1-D SDS-PAGE, bands digested in gel and identified by mass spectrometry; conditions: not given

| binding | Binder |
| --- | --- |
| binds | B5 |
